AC50 and cell number change data for 59 compounds are collected here from PubChem BioAssay AID2685 (National Center for Advancing Translational Sciences (NCATS), 2010).

The test in a line: qHTS Assay for Lipid Storage Modulators in Drosophila S3 Cells.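 On cell number change: cells counted by Cell Tracker Red CMTPX staining in the red channel.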 Particulars: BODIPY lipid droplet fluorescence, 18-24 h; for cell number change: measured here: cell count max response, cells fed with added oleic acid. The method, boiled down: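 Drosophila S3 cells got compounds at several concentrations plus oleic acid (400 uM solution). Laser-scanning cytometry with 488 nm excitation read lipid droplets at 500-530 nm and cells at 575-640 nm. Percent activity was relative to 20 uM Triacsin C.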

[1] abbreviates: measured here: lipid fluorescence (Fed channel) AC50, cells fed with added oleic acid.
[2] abbreviates: measured here: cell number channel AC50, cells fed with added oleic acid.

The structures appear in SMILES notation. This is one part of the list. Shown are side measurements of this screen, not its main read-out; they come without a call. Compounds called inactive in the main read-out are mostly missing here. The note in brackets gives the kind of curve behind each potency; many fits are weak. Where a SMILES comes first, the peptide text is derived from it. [ ]: non-standard residue; d: D form. The star is where a group is joined. PhAc = O=C(Cc1ccccc1)*

The term AC50 denotes the concentration at which the activity in the assay is half-maximal. A lower AC50 goes with activity at low concentration.

As for `COc1ccc(CC(=O)NCc2n[nH]c(=S)n2-c2ccc(Br)cc2)cc1`, under setting [1], the AC50 is 0.58 µM [rising, single point].

Consider `Cc1ccc(N(C(C)C(=O)Nc2ccc3c(c2)OCO3)S(C)(=O)=O)cc1` (stereo unspecified), for which the cell number change is -13.3%. Further, the AC50 under setting [1] was 1.64 µM [rising, partial curve].

With `Brc1ccc(C2=Nc3ccccc3C(c3ccncc3)=NN2)cc1`, the cell number change came out at 16.8%. In addition, the concentration at half-maximal activity (AC50) under setting [1] is 0.461 µM [rising, full curve, poor fit].

Take `NS(=O)(=O)c1cccc(NC(=O)C2CC(=O)N(Cc3ccco3)C2)c1` (stereo unspecified): the cell number change was -35.7%. Moreover, the AC50 under setting [2] is 3.66 µM [falling, full curve]. The concentration at half-maximal activity (AC50) under setting [1] was 29.1 µM [falling, single point].

As for `COc1ccc(O)c(C(=O)c2cnn(S(=O)(=O)c3ccc(C)cc3)c2)c1`, the cell number change is -0.138%. The AC50 under setting [1] was 11.6 µM [falling, partial curve].

Regarding `CC(C)(C)c1cc(NS(=O)(=O)c2cccs2)no1`, the cell number change was -6.08%.

As to `CCOC(=O)C1CCN(C(=O)CCc2nnc3ccc(N4CCN(C)CC4)nn23)CC1`, the cell number change was determined as 9.55%. Under setting [1], the concentration at half-maximal activity (AC50) is 0.116 µM [rising, partial curve, poor fit].

Regarding `Cc1cnc(C(=O)OCC(=O)c2c(N)n(CC(C)C)c(=O)n(C)c2=O)cn1`, the cell number change was found to be 14.1%.

Take `O=C(O)CCCC(=O)Nc1ccccc1C(=O)N1CCCC1`: the AC50 under setting [1] is 5.8 µM [falling, single point].

On to `NS(=O)(=O)c1ccc(N/N=C/c2ccccc2C(=O)O)c([N+](=O)[O-])c1`, for which the cell number change is 33.5%. The AC50 under setting [1] was 0.231 µM [falling, full curve, poor fit].

`CN(Cc1ccc(F)cc1)C(=O)CNC(=O)c1cccs1`: the cell number change is 1.17%. The concentration at half-maximal activity (AC50) under setting [1] was 0.082 µM [falling, full curve, poor fit].

In the case of `COc1ccc(C)cc1NC(=O)CCS(=O)(=O)c1ccc2c(c1)oc(=O)n2C`, the cell number change was -8.26%. The AC50 under setting [1] was 0.731 µM [falling, single point].

Consider `COC(=O)c1ccc(CNC(=O)c2c3c(nc4ccccc24)CCN(Cc2ccccc2)C3)cc1`, for which the cell number change was determined as 9.03%. Also, the half-maximal activity concentration (AC50) under setting [1] is 0.82 µM [falling, full curve, poor fit].

For the compound `Cc1cc(Cl)ccc1NC(=O)c1ccc2c(c1)CCN2S(C)(=O)=O`, the cell number change was 13.4%. Also, under setting [2], the concentration at half-maximal activity (AC50) was 3.26 µM [rising, single point].

For the compound `COC(=O)C(NS(=O)(=O)c1ccccc1Cl)c1ccccc1` (stereo unspecified), the cell number change is -7.01%. Moreover, the AC50 under setting [1] is 6.51 µM [falling, single point].

`Cc1ccc(S(=O)(=O)NCc2ccccc2)cc1C(=O)N1CCN(S(=O)(=O)c2ccccc2)CC1`: the cell number change was -1.01%. For the same compound, the half-maximal activity concentration (AC50) under setting [2] is 3.26 µM [rising, single point].

As for `CCN(CCO)Cc1csc2cc(C)ccc12`, the cell number change is -3.45%. Besides, the AC50 under setting [1] was 16.4 µM [rising, single point].

For the compound `O=C(COc1ccccc1)N1CCCCCCC1`, the cell number change was 19%. Besides, the AC50 under setting [1] is 29.1 µM [rising, single point].

Take `COc1ccc(C)cc1COC(=O)c1[nH]c(C)c(C(C)=O)c1C`: the cell number change stood at 14.3%. For the same compound, the concentration at half-maximal activity (AC50) under setting [1] is 29.1 µM [falling, single point].

Turning to `CCCCn1c(N)c(N(CCC(C)C)C(=O)c2cc(Cl)nc3ccccc23)c(=O)[nH]c1=O`, the cell number change turned out to be 29.2%. The AC50 under setting [2] is 4.11 µM [rising, full curve, poor fit]. Further, the AC50 under setting [1] is 4.61 µM [rising, full curve].

Take `CN(C)C(=O)c1snnc1-c1ccccc1`: the cell number change was 10.8%. The AC50 under setting [1] was 29.1 µM [rising, single point].

In the case of `COc1ccc(C(C)=O)cc1CC(=O)Nc1cccc(S(=O)(=O)N2CCOCC2)c1`, the cell number change is -5.83%.

Turning to `COc1ccc(CC(=O)Nc2cccc(C(=O)Nc3ccccc3C(=O)O)c2)cc1OC`, the cell number change amounted to 32.2%. Besides, the AC50 under setting [2] was 18.4 µM [rising, single point].

With `CC(C)C[C@@H](NC(=O)[C@H]1CCCN1C(=O)Cc1ccccc1)C(N)=O` (PhAc-[dP]-[dL]-NH2), the cell number change was -23%. Under setting [1], the AC50 is 29.1 µM [falling, single point].

Consider `CCN1C(=O)[C@@H]2[C@@H](c3ccc(-c4cccc(Cl)c4)c(OC)c3)N3CCCC[C@@]3(C(=O)OC)[C@@H]2C1=O`, for which the cell number change is -47.8%. Under setting [2], the concentration at half-maximal activity (AC50) is 13 µM [falling, partial curve, poor fit]. Also, the concentration at half-maximal activity (AC50) under setting [1] was 18.4 µM [falling, partial curve, poor fit].

Regarding `CC(=O)c1cccc(S(=O)(=O)N2CCC(C(=O)O)(c3ccccc3)CC2)c1`, the cell number change is 32.1%. Further, the AC50 under setting [2] is 32.6 µM [rising, single point]. For the same compound, the half-maximal activity concentration (AC50) under setting [1] is 0.13 µM [rising, full curve].

Consider `Cc1c(NC(=O)c2cn3ccccc3n2)cccc1-n1cnnn1`, for which the cell number change was -47%. Further, the half-maximal activity concentration (AC50) under setting [2] is 29.1 µM [falling, single point]. Moreover, under setting [1], the AC50 was 16.4 µM [falling, single point].

With `Cc1ccc(C(=O)CCC(=O)NCc2ccccc2)cc1`, the cell number change amounted to 12.5%.

Turning to `CCC(C)N(C(=O)COc1ccccc1C#N)C1CCS(=O)(=O)C1` (stereo unspecified), under setting [1], the AC50 is 23.1 µM [falling, single point].

Consider `O=C(CSc1nnc(CNC(=O)c2cccs2)o1)Nc1cccc(Cl)c1`, for which the cell number change was 2.14%. Moreover, the AC50 under setting [1] is 6.51 µM [rising, single point].

Take `COc1ccc2cc(-c3cc(C(=O)O)c4ccccc4n3)ccc2c1`: the cell number change came to 32.5%. Further, the half-maximal activity concentration (AC50) under setting [2] is 29.1 µM [rising, single point].

For `Cc1ccccc1SCC(=O)NC1CCOC1=O` (stereo unspecified), the cell number change is -13.2%. Further, under setting [2], the AC50 was 0.058 µM [falling, full curve, poor fit]. For the same compound, under setting [1], the half-maximal activity concentration (AC50) is 0.0731 µM [falling, full curve, poor fit].

With `CCOC(=O)CSc1nc2nc(C)cc(C)n2n1`, the cell number change is -27.6%. Moreover, the half-maximal activity concentration (AC50) under setting [1] was 20.6 µM [falling, partial curve, poor fit].

For `N/C(=N\OS(=O)(=O)c1ccccc1)c1ccccn1`, the cell number change was -32.4%. For the same compound, the AC50 under setting [2] is 29.1 µM [falling, single point]. In addition, the half-maximal activity concentration (AC50) under setting [1] was 6.51 µM [rising, single point].

On to `C/C(=N\NC1=NCCN1)c1ccccc1`, for which the cell number change stood at 28.4%.

As to `CN(C)/C=N/c1ncc(C(=O)c2ccc(Cl)cc2)s1`, the AC50 is 6.51 µM [rising, single point] under setting [2] and 6.51 µM [rising, single point] under setting [1].

Take `Cn1c(N)c(N2CCN(c3ccccc3)CC2)c(=O)[nH]c1=O`: the cell number change was -92.2%.

For `COc1cccc(NS(=O)(=O)c2cc(C)ccc2OC)c1`, the cell number change turned out to be 0.27%. Besides, the half-maximal activity concentration (AC50) under setting [1] was 0.0517 µM [rising, full curve, poor fit].

As to `COc1cc(/C=C2/SC(=S)NC2=O)ccc1OS(=O)(=O)c1ccc(C)cc1`, the cell number change is -2.26%. Under setting [1], the half-maximal activity concentration (AC50) is 29.1 µM [falling, single point].

`COCCn1c(SCC(=O)NC(=O)NC2CCCC2)nc2ccccc2c1=O`: the cell number change was determined as 29.4%. Further, the AC50 under setting [1] was 16.4 µM [falling, partial curve].

In the case of `COc1ccc(Cl)cc1N(C(=O)c1ccco1)C(C(=O)NC1CCCC1)c1ccco1` (stereo unspecified), the cell number change is 22.2%. Further, under setting [1], the AC50 was 6.51 µM [rising, single point].

Turning to `O=C(Cc1ccccc1)NNC(=O)C1CCN(c2ncccn2)CC1`, the AC50 under setting [2] was 0.103 µM [falling, full curve, poor fit].

With `CC1(c2ccc(OC(F)F)cc2)NC(=O)N(CC(=O)Nc2cccc(F)c2)C1=O` (stereo unspecified), the cell number change was 22.5%. Further, the AC50 under setting [2] is 3.66 µM [rising, full curve, poor fit].

On to `CCOc1ccc(C(=O)NC(=S)Nc2ccccc2N2CCOCC2)cc1Br`, for which the cell number change was -20.9%. Further, the AC50 under setting [2] is 0.092 µM [rising, full curve, poor fit]. In addition, under setting [1], the concentration at half-maximal activity (AC50) is 6.51 µM [rising, partial curve, poor fit].

For `COc1ccc(C(=O)N[C@H](C(=O)NCc2ccco2)C(C)C)cc1`, the cell number change is -5.22%. Further, the half-maximal activity concentration (AC50) under setting [1] is 0.00461 µM [rising, full curve, poor fit].

As for `Cc1nc(OCc2c(C)noc2C)c2ccccc2n1`, the cell number change came out at 22.1%. Besides, the AC50 under setting [2] is 0.82 µM [rising, single point]. Moreover, under setting [1], the AC50 was 0.731 µM [rising, full curve].

Regarding `CCCCCCCCOC(=O)CCc1c(C)[nH]c(=S)[nH]c1=O`, the cell number change was -22%. Moreover, under setting [1], the concentration at half-maximal activity (AC50) is 13 µM [falling, single point].

With `O=C(COC(=O)c1cccc(S(=O)(=O)N2CCCC2)c1)Nc1ccccc1Cl`, the cell number change was -91.5%.

For the compound `COC(=O)c1c(C(=O)OC)c(C)n(Cc2ccco2)c1C`, the cell number change was 21.6%. Further, the AC50 under setting [1] was 18.4 µM [rising, single point].

In the case of `CSCCC(NC(=O)COc1ccccc1)C(=O)N(C)CC(=O)Nc1ccc(Cl)cc1` (stereo unspecified), the cell number change was -13.3%.

As for `CCc1cc(-c2n[nH]c(C)c2Oc2ccc(C(C)C)cc2)c(O)cc1O`, the cell number change is -92.4%. Moreover, the AC50 under setting [1] is 29.1 µM [falling, partial curve].

Regarding `Cc1ccc(C)c(N2CCN(C(=O)CCC(=O)N3CCOc4ccc(Cl)cc43)CC2)c1`, the cell number change was 59.7%. Also, the AC50 under setting [2] is 14.6 µM [rising, partial curve]. Also, under setting [1], the half-maximal activity concentration (AC50) is 20.6 µM [rising, single point].

`Cc1cc(C)c(C#N)c(SCc2[nH]nc3c2C(c2ccccc2)C(C#N)=C(N)O3)n1` (stereo unspecified): the cell number change is 78.5%. The AC50 under setting [2] was 1.16 µM [rising, full curve]. In addition, the AC50 under setting [1] is 8.2 µM [rising, partial curve].

As for `Cc1ccc(OCC(=O)NC2CCCC2)c(C)c1`, the cell number change was 20.1%. For the same compound, the concentration at half-maximal activity (AC50) under setting [1] is 6.51 µM [rising, partial curve].

Turning to `CC(C)/C=N/Nc1nc(-c2ccc(Br)cc2)cs1`, the cell number change turned out to be 13.1%. In addition, under setting [1], the AC50 is 3.26 µM [rising, partial curve, poor fit].

As for `CC(=O)c1ccc(NC(=S)N2CCN(c3cccc(Cl)c3)CC2)cc1`, the cell number change is -0.865%.

Take `CC(=O)/C(=N/Nc1ccc(C)cc1)Sc1nnc(CCc2ccccc2)n1-c1ccccc1`: the cell number change is -4.29%. The AC50 under setting [1] was 0.651 µM [falling, partial curve].

As for `CCOC(=O)N1CCC(NC(=O)CNS(=O)(=O)c2ccc(Br)s2)CC1`, the cell number change was 16.4%. Moreover, under setting [1], the half-maximal activity concentration (AC50) is 29.1 µM [rising, single point].

For the compound `COc1cccc(C(CC(=O)NCC2CCCO2)NS(=O)(=O)c2ccc(C)cc2)c1OC` (stereo unspecified), the cell number change is -37.1%. Further, the half-maximal activity concentration (AC50) under setting [2] is 29.1 µM [falling, single point].
